Source: PubChem BioAssay AID504804 (Drosophila RNAi Screening Center, 2011)

Test: 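Knock-downs shielding fly cells from apoptosis caused by DNA damage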 (primary screen)
System: Drosophila Kc cells
Reagents: long dsRNA against Drosophila genes, 0.5 µg dsRNA per well
Duration: 96 h (48 h knock-down, then 48 h drug)
Conditions: doxorubicin 5 µg/ml for 48 h, added 48 h after dsRNA
Read-out: 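Luminescent ATP counts per replicate, not normalised, reflecting viable cells after 48 h dsRNA knock-down followed by 48 h of 5 µg/ml doxorubicin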
Direction: raw ATP luminescence: higher = more viable cells, protection from doxorubicin
Call rule: 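Active when both duplicate wells lie at least 2 SD above the plate mean and protection is confirmed by rescreening and independent dsRNAs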
The deposit covers about 19,000 reagents; shown is a random part of those that have a named target and a result. Over the whole deposit, 47 (0.25%) got an active call. 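Signals are raw, not normalised; exact z-scores behind calls not deposited; actives needed confirmation, so some wells reaching 2 SD are inactive.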 Names joined by + are all predicted targets of the reagent. No sequences are given here.

Nep4 (GeneID 42449) [SID104195331]
- raw ATP luminescence, replicate 1: 39850
- raw ATP luminescence, replicate 2: 32497
- outcome: inactive

CG18048 (GeneID 40782) [SID104192365]
- raw ATP luminescence, replicate 1: 72600
- raw ATP luminescence, replicate 2: 45323
- outcome: inactive

E(spl)m2-BFM (GeneID 43155) [SID104196783]
- raw ATP luminescence, replicate 1: 21020
- raw ATP luminescence, replicate 2: 21800
- outcome: inactive

His3.3B (GeneID 31848) [SID104197565]
- raw ATP luminescence, replicate 1: 3.00e5
- raw ATP luminescence, replicate 2: 2.71e5
- outcome: inactive

His3.3B (GeneID 31848) [SID104198465]
- raw ATP luminescence, replicate 1: 3.19e5
- raw ATP luminescence, replicate 2: 2.92e5
- outcome: inactive

SF1 (GeneID 43912) [SID104196636]
- raw ATP luminescence, replicate 1: 62310
- raw ATP luminescence, replicate 2: 59170
- outcome: inactive

CG16756 (GeneID 31460) [SID104197907]
- raw ATP luminescence, replicate 1: 37460
- raw ATP luminescence, replicate 2: 49160
- outcome: inactive

Pka-R1 (GeneID 40305) [SID104191466]
- raw ATP luminescence, replicate 1: 20570
- raw ATP luminescence, replicate 2: 17827
- outcome: inactive

Pka-R1 (GeneID 40305) [SID104191667]
- raw ATP luminescence, replicate 1: 14570
- raw ATP luminescence, replicate 2: 15940
- outcome: inactive

CG18233 (GeneID 40025) [SID104190100]
- raw ATP luminescence, replicate 1: 54710
- raw ATP luminescence, replicate 2: 41220
- outcome: inactive

sbb (GeneID 44027) [SID104185515]
- raw ATP luminescence, replicate 1: 1.80e5
- raw ATP luminescence, replicate 2: 1.31e5
- outcome: inactive

ERp60 (GeneID 36270) [SID104187101]
- raw ATP luminescence, replicate 1: 65217
- raw ATP luminescence, replicate 2: 46890
- outcome: inactive

CG2004 (GeneID 31809) [SID104197992]
- raw ATP luminescence, replicate 1: 46890
- raw ATP luminescence, replicate 2: 50780
- outcome: inactive

lectin-29Ca (GeneID 53547) [SID104182427]
- raw ATP luminescence, replicate 1: 35320
- raw ATP luminescence, replicate 2: 73923
- outcome: inactive

grass (GeneID 43273) [SID104195703]
- raw ATP luminescence, replicate 1: 71290
- raw ATP luminescence, replicate 2: 37520
- outcome: inactive

Sr-CIV (GeneID 33576) [SID104180367]
- raw ATP luminescence, replicate 1: 30820
- raw ATP luminescence, replicate 2: 46523
- outcome: inactive

CG15625 (GeneID 33694) [SID104180252]
- raw ATP luminescence, replicate 1: 24877
- raw ATP luminescence, replicate 2: 33783
- outcome: inactive

Lime (GeneID 36023) [SID104186544]
- raw ATP luminescence, replicate 1: 39723
- raw ATP luminescence, replicate 2: 68963
- outcome: inactive

CG34125 (GeneID 4379886) [SID104180642]
- raw ATP luminescence, replicate 1: 2.65e5
- raw ATP luminescence, replicate 2: 2.03e5
- outcome: inactive

Rrp1 (GeneID 33500) [SID104180576]
- raw ATP luminescence, replicate 1: 34087
- raw ATP luminescence, replicate 2: 24823
- outcome: inactive

Cpr57A + Obp57d [SID104186500]
- raw ATP luminescence, replicate 1: 58670
- raw ATP luminescence, replicate 2: 74497
- outcome: inactive

bru2 (GeneID 250811) [SID104181038]
- raw ATP luminescence, replicate 1: 1.94e5
- raw ATP luminescence, replicate 2: 1.81e5
- outcome: inactive

bru2 (GeneID 250811) [SID104181039]
- raw ATP luminescence, replicate 1: 1.96e5
- raw ATP luminescence, replicate 2: 2.06e5
- outcome: inactive

bru2 (GeneID 250811) [SID104181041]
- raw ATP luminescence, replicate 1: 2.59e5
- raw ATP luminescence, replicate 2: 2.27e5
- outcome: inactive

bru2 (GeneID 250811) [SID104181042]
- raw ATP luminescence, replicate 1: 2.14e5
- raw ATP luminescence, replicate 2: 2.11e5
- outcome: inactive

bru2 (GeneID 250811) [SID104182349]
- raw ATP luminescence, replicate 1: 32210
- raw ATP luminescence, replicate 2: 38083
- outcome: inactive

eIF4G2 (GeneID 42819) [SID104193999]
- raw ATP luminescence, replicate 1: 30903
- raw ATP luminescence, replicate 2: 31783
- outcome: inactive

tyn (GeneID 3354987) [SID104200444]
- raw ATP luminescence, replicate 1: 3.68e5
- raw ATP luminescence, replicate 2: 5.05e5
- outcome: inactive

Entries listed so far whose target name starts with B or b:
bru2 (GeneID 250811) [SID104181038]
- raw ATP luminescence, replicate 1: 1.94e5
- raw ATP luminescence, replicate 2: 1.81e5
- outcome: inactive

bru2 (GeneID 250811) [SID104181039]
- raw ATP luminescence, replicate 1: 1.96e5
- raw ATP luminescence, replicate 2: 2.06e5
- outcome: inactive

bru2 (GeneID 250811) [SID104181041]
- raw ATP luminescence, replicate 1: 2.59e5
- raw ATP luminescence, replicate 2: 2.27e5
- outcome: inactive

bru2 (GeneID 250811) [SID104181042]
- raw ATP luminescence, replicate 1: 2.14e5
- raw ATP luminescence, replicate 2: 2.11e5
- outcome: inactive

bru2 (GeneID 250811) [SID104182349]
- raw ATP luminescence, replicate 1: 32210
- raw ATP luminescence, replicate 2: 38083
- outcome: inactive
